Source: patent US20180193475A1 (Novartis, published 2018)
These are yes or no findings as the source states them, for the method shown. Some binding calls cover weakened binding; strength is not graded here. For part of these data: Where a sequence is shown, tags or fusion partners need not be part of it.

Protein sequences, listed by entry. Tags and fused reporters are not part of them. Residues count along the entry.
UniProt P10721, residues 26-976: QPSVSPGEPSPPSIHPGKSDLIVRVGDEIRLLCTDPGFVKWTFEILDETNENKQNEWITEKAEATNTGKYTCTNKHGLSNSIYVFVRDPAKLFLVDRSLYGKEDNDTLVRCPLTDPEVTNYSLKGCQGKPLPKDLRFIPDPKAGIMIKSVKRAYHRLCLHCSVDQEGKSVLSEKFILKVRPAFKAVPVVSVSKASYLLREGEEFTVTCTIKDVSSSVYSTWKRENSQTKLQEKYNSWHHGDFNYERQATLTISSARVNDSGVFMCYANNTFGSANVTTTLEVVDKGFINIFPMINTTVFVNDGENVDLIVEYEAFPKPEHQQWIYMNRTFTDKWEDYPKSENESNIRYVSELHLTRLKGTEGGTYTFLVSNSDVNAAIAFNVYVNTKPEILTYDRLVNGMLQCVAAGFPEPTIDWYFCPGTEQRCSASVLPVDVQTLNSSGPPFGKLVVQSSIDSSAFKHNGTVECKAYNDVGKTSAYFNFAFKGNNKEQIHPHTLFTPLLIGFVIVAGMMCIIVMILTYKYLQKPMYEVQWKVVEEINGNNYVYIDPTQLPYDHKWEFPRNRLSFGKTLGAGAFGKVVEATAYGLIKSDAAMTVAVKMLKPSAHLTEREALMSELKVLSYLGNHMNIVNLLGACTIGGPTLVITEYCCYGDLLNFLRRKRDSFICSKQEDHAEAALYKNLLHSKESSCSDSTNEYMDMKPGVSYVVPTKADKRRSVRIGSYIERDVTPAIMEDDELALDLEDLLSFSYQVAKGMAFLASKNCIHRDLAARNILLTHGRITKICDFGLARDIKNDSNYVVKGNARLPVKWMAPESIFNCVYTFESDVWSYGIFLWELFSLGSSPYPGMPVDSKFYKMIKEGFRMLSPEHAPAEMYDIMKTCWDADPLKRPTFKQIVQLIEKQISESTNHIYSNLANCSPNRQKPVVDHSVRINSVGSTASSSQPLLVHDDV

T1: Mouse cKIT ECD, C-terminal 6x His (Sino Biological Inc, catalog number 50530-M08H) (mouse) (UniProt P05532)
T1 sequence (looked up): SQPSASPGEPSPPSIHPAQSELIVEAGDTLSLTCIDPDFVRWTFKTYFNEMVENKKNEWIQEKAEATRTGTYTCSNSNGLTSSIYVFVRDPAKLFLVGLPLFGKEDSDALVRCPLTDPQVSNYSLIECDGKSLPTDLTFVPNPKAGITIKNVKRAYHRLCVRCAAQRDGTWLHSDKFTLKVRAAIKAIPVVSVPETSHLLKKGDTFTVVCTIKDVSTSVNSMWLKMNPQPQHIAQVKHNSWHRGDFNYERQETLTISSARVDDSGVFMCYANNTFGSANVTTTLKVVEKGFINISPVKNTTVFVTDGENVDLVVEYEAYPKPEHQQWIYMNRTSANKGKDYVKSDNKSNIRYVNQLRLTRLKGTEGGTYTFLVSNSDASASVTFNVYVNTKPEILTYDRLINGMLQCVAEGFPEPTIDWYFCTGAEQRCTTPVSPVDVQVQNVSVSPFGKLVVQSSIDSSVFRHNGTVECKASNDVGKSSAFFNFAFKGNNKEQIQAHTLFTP

B1: 20376 (antibody, human IgG1, lambda, V domains shown)
VH: QVQLVQSGAEVKKPGSSVKVSCKASGGTFSSYAISWVRQAPGQGLEWMGGIIPMSGRTTYAQKFQGRVTITADESTSTAYMELSSLRSEDTAVYYCARDYGPEAPDYGQSTSYFWYYAFDPWGQGTLVTVSS
VL: DIELTQPPSVSVSPGQTASITCSGDNIPSYFVHWYQQKPGQAPVLVIYDDNDRPSGIPERFSGSNSGNTATLTISGTQAEDEADYYCSSWDQDTVVFGGGTKLTVLG
B2: NEG085 (antibody, human IgG1, kappa, V domains shown)
VH: EVQLVESGGGLVQPGGSLRLSCAASGFAFSGYYMAWVRQAPGKGLEWVANINYPGSSTYYLDSVKGRFTISRDNAKNSLYLQMNSLRAEDTAVYYCARGDYYGTTYWYFDVWGQGTTVTVSS
VL: DIQMTQSPSSLSASVGDRVTITCRASQSISSYLNWYQQKPGKAPKLLIYYTSRLQSGVPSRFSGSGSGTDFTLTISSLQPEDFATYYCQQGRRLWSFGGGTKVEIKR

How the values were obtained:
[1] = molecular target: T1, Mouse cKIT ECD, C-terminal 6x His (Sino Biological Inc, catalog number 50530-M08H) (mouse); assay: SPR (Biacore 2000)
[2] = molecular target: cKIT on the surface of GIST-T1 cells (UniProt P10721); assay: flow cytometry on GIST-T1 cells, 10 ug/ml antibody, temperature shift

| Binder | binding [1] | binding [2] |
| --- | --- | --- |
| B1 | binds | binds |
| B2 |  | binds |
